These are yes or no findings as the source states them, for the method shown. For part of these data: Binding seen in cells or lysates may run through a third protein. Some results given as binding are weak or reduced against the parent protein; the word gives no strength. Blank lines part the entries; values can stand above or below the molecule they belong to.
Columns and labels:
[1] = target: T1, interferon regulatory factor 7 (IRF-7) (UniProt Q92985); test: co-immunoprecipitation, similar experiments using IRF-7
T1 sequence (looked up): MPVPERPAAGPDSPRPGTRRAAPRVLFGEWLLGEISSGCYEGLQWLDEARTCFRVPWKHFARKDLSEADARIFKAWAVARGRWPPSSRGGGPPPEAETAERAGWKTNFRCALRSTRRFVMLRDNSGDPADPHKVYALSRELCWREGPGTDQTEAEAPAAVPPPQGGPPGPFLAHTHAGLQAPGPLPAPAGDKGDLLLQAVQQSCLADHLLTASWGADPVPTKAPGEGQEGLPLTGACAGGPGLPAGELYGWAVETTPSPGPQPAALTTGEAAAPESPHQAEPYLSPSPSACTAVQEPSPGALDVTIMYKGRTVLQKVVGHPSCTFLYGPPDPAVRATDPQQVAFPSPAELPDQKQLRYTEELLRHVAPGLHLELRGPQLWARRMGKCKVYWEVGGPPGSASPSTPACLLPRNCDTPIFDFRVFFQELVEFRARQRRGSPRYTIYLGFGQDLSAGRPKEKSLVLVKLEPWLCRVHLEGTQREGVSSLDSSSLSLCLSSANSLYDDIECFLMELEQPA

Protein sequences, listed by entry. Tags and fused reporters are not part of them. Residues count along the entry.
UniProt O00206, residues 24-839: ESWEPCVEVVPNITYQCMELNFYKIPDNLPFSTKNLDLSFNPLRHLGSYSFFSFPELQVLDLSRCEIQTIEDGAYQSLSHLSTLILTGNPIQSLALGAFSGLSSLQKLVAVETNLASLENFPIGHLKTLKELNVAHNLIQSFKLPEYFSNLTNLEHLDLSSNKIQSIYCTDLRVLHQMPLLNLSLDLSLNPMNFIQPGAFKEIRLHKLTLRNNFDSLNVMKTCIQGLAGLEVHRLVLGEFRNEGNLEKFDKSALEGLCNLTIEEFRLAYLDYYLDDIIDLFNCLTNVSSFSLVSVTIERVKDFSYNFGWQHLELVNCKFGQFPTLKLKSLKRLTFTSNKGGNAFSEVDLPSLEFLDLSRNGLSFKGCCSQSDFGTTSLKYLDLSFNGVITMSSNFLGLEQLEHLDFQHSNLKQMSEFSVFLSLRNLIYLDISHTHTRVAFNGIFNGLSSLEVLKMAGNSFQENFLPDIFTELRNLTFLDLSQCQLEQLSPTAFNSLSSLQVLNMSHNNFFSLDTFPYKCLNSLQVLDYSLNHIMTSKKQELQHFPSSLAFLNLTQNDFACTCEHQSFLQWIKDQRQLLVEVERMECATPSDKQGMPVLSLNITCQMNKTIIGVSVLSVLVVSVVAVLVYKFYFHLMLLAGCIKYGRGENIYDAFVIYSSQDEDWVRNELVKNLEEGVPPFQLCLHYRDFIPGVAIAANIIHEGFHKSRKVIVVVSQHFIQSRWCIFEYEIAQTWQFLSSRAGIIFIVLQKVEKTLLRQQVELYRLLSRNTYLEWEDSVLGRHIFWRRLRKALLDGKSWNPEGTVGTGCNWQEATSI
UniProt Q86XR7: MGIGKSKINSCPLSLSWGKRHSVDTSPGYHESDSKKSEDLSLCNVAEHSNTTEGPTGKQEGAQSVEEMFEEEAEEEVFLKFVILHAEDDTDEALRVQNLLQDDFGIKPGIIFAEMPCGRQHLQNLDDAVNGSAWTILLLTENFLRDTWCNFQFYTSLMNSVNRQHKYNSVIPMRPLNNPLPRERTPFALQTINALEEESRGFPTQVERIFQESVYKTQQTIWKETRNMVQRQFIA
UniProt Q8IUC6: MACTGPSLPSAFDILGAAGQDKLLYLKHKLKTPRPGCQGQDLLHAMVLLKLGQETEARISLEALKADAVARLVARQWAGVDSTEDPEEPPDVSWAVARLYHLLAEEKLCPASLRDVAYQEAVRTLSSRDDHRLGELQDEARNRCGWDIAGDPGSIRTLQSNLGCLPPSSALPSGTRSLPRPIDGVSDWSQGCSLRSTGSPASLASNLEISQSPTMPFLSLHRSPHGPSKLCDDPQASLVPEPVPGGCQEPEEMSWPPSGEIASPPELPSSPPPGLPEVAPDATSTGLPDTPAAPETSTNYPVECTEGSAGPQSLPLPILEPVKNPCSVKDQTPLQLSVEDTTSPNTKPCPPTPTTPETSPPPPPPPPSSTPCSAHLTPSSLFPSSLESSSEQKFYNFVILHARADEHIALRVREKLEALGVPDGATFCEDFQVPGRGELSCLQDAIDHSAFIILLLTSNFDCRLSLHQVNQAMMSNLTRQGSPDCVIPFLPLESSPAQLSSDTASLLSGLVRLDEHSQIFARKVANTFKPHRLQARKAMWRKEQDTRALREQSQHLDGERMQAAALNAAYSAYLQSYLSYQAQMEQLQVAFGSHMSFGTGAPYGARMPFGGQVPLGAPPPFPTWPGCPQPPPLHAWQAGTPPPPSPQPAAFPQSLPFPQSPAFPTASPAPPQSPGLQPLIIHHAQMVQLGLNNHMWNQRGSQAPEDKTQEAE

[2] = target: TLR4-YFP (Toll-Like Receptor 4 fused to yellow fluorescent polypeptide), stably expressed in HELA cells (UniProt O00206); test: co-immunoprecipitation from TLR4-YFP HELA cell lysates: anti-GFP IP, blot for Flag
[3] = target: T2, interferon regulatory factor 3 (IRF-3) (UniProt Q14653); test: co-immunoprecipitation from transfected HEK293 cells: anti-IRF-3 IP, blot for Flag; confirmed by the reverse anti-Flag IP, blot for IRF-3
T2 sequence (looked up): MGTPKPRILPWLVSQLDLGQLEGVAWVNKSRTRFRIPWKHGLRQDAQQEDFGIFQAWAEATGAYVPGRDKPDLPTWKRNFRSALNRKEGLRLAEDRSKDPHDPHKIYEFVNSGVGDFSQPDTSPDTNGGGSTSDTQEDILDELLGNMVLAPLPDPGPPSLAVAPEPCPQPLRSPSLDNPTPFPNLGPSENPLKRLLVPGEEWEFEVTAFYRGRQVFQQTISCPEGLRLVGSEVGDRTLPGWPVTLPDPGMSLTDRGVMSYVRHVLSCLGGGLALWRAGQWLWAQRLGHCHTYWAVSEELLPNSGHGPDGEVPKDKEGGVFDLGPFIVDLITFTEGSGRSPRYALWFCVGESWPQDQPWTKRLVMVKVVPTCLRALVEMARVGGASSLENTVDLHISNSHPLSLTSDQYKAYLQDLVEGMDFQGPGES

[4] = target: T2, interferon regulatory factor 3 (IRF-3); test: co-immunoprecipitation from transfected HEK293 cells
[5] = target: TRAM (as used in GST-pull down experiments) (UniProt Q86XR7); test: GST-pull down
[6] = target: Flag-tagged Mal (MyD88 adaptor-like; TIRAP) (UniProt P58753); test: co-immunoprecipitation from 293T cells: anti-GFP IP of TRAM-CFP, blot for Flag
[7] = target: Flag-tagged Mal-P125H (dominant negative mutant) (UniProt P58753); test: as above
[8] = target: Flag-tagged TRIF (TIR domain-containing adaptor inducing IFN-beta) (UniProt Q8IUC6); test: as above
[9] = target: Flag-tagged Mal (MyD88 adaptor-like; TIRAP) (UniProt P58753); test: co-immunoprecipitation from 293T cells: anti-GFP IP of TRIF-CFP, blot for Flag
[10] = target: Flag-tagged Mal-P125H (dominant negative mutant) (UniProt P58753); test: as above

Molecule: Flag-tagged TRAM (TRIF-related adaptor molecule), human (from UniProt Q86XR7 1-235)
- binding [1]: binds
- binding [2]: binds
- binding [3]: binds

Molecule: Flag-tagged TRIF (TIR domain-containing adaptor inducing IFN-beta) (from UniProt Q8IUC6 1-712)
- binding [4]: binds
- binding [1]: binds

Molecule: Mal (as used in GST-pull down experiments) (from UniProt P58753 1-235)
- binding [5]: binds

Molecule: TRAM-CFP (human TRAM fused in-frame with cyan fluorescent polypeptide) (from UniProt Q86XR7 1-235)
- binding [6]: binds
- binding [7]: binds
- binding [8]: binds

The remaining lines, values ahead:

- binding [9]: binds
- binding [10]: binds
Molecule: TRIF-CFP (TRIF fused to cyan fluorescent polypeptide) (from UniProt Q8IUC6 1-712)

- binding [2]: binds
B1: Flag-tagged Mal (MyD88 adaptor-like; TIRAP) (other, UniProt P58753-2 1-235, looked up)
chain: MASSTSLPAPGSRPKKPLGKMADWFRQTLLKKPKKRPNSPESTSSDASQPTSQDSPLPPSLSSVTSPSLPPTHASDSGSSRWSKDYDVCVCHSEEDLVAAQDLVSYLEGSTASLRCFLQLRDATPGGAIVSELCQALSSSHCRVLLITPGFLQDPWCKYQMLQALTEAPGAEGCTIPLLSGLSRAAYPPELRFMYYVDGRGPDGGFRQVKEAVMRCKLLQEGEGERDSATVSDLL
notes: pEF-Bos-Flag Mal as described in Fitzgerald et al; also called Flag-Mal; pEF-Bos-Flag Mal; not shown: Flag tag

— patent publication US20050158799A1 (published 2005)
